No constants are given. Whether binding was seen depends on the method and setting. Some results given as binding are weak or reduced against the parent protein; the word gives no strength.
Assays:
[1] = biological target: Taq DNA polymerase (Thermus aquaticus) (UniProt P19821); experiment: native (non-denaturing) PAGE of Taq with EP020
[2] = biological target: Taq DNA polymerase (Thermus aquaticus) (UniProt P19821); experiment: native (non-denaturing) PAGE band shift; EP020:Taq 0.5:1 (2.5 uM:5 uM) and 0.25:1 (2.5 uM:10 uM)
[3] = biological target: Taq DNA polymerase (Thermus aquaticus) (UniProt P19821); experiment: native (non-denaturing) PAGE band shift; 20 uM Taq with 10, 15 or 20 uM blocked 26-bp dsDNA oligomer
[4] = biological target: Taq DNA polymerase (Thermus aquaticus) (UniProt P19821); experiment: native (non-denaturing) PAGE band shift; 5 uM Taq with EP020 Type B Reagent at or above the Taq concentration (up to 10:1)

Amino acid sequences for entries named in this document (tags omitted).
UniProt P19821: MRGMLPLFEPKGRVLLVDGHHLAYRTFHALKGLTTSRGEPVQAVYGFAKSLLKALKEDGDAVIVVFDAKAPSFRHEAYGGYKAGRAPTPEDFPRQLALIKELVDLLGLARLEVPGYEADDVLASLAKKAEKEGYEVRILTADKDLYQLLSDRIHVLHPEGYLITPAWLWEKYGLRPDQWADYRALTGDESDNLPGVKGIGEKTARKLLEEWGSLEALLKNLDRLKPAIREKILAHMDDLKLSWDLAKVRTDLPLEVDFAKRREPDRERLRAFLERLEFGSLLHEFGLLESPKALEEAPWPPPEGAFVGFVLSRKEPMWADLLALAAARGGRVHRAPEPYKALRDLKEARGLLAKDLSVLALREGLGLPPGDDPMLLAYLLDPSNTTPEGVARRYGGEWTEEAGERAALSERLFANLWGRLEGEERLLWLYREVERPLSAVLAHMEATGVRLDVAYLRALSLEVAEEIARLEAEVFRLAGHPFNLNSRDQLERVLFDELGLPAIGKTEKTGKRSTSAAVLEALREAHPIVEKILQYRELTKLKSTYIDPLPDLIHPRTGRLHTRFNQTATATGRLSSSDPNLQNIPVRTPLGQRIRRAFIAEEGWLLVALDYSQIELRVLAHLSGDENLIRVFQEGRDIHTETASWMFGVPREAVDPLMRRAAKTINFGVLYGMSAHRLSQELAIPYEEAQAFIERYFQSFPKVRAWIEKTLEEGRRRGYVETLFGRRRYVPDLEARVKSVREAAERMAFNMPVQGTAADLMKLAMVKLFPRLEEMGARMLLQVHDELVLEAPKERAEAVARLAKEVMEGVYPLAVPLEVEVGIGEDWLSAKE

binding [1]: binds | binding [2]: binds | binding [3]: binds | binding [4]: binds
Substance: Taq DNA polymerase (from UniProt P19821 1-832) (enzyme)

— patent publication US20160222434A1
